This is an account of results in patent US20260275319A1, “ARCHAEAL PEPTIDE RECOMBINASE – A NOVEL PEPTIDE LIGATING ENZYME” (MAX-PLANCK-GESELLSCHAFT ZUR FÖRDERUNG DER WISSENSCHAFTEN …, priority 2019, published 2026).

Protein sequences, listed by entry. Tags and fused reporters are not part of them. Lines headed by an entry give the natural chain unless they say otherwise; changes in a name come on top.
UniProt Q58261: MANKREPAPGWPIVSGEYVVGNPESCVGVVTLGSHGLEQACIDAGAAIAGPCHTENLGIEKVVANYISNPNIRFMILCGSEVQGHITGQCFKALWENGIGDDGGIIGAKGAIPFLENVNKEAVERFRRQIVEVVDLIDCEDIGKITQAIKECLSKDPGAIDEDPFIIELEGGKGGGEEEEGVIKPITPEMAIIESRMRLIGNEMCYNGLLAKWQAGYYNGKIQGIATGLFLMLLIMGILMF

No constants are given. Whether binding was seen depends on the method and setting. A result given as binding can be weak or reduced; the word gives no strength.

Experiment [1] has as its target T1, M. jannaschii MtrA^Δ194-245 (Methanocaldococcus jannaschii) (UniProt Q58261).
T1 sequence: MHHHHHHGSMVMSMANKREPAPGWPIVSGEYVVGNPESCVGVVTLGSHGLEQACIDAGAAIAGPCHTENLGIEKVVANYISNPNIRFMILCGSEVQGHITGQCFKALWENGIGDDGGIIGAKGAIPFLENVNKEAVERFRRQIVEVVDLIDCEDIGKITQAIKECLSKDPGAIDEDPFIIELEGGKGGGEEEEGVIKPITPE
The experiment in a line: size exclusion chromatography, 1:1 molar mixture; no shifted peak. Background: SEC sorts molecules by how far they enter the pores of the column.

For experiment [2], the target named is T1, M. jannaschii MtrA^Δ194-245 (Methanocaldococcus jannaschii). The experiment in a line: size exclusion chromatography, 1:1 molar mixture of 200 µM proteins; no shifted peak.

Regarding “M. jannaschii Adriase S1A without OB, with C-terminal His-tag (enzyme)”, the binding result in experiment [1] and in experiment [2] was “binds” throughout.
